Data: the supplement of paper PMC4604168 (melanoma cell lines)
The list shows a part of the results. Repeats are few or missing, and single values can be far off.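 Imaging used 1,536-well plates; nuclei positive for cleaved PARP by antibody were divided by total DNA-stained nuclei to yield the apoptosis fraction. Doses for screening kept most cells viable, and cell lines differ markedly in resting and induced cleaved-PARP levels.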

Columns and labels:
Test in all cases: cleaved PARP positive nuclei fraction relative to DMSO control; melanoma cells; higher = more apoptosis
Details in all cases: library dose: low library concentration; 72 h
501Mel = test system: 501Mel
A101D = test system: A101D
A2058 = test system: A2058
A375 = test system: A375
C32 = test system: C32
CBRC008 = test system: CBRC008 (line from a melanoma biopsy)
CBRC013 = test system: CBRC013 (line from a melanoma biopsy)
CBRC014 = test system: CBRC014 (line from a melanoma biopsy)
CBRC016 = test system: CBRC016 (line from a melanoma biopsy)
CBRC017 = test system: CBRC017 (line from a melanoma biopsy)

Structure (SMILES)	cleaved PARP positive nuclei fraction (501Mel)	cleaved PARP positive nuclei fraction (A101D)	cleaved PARP positive nuclei fraction (A2058)	cleaved PARP positive nuclei fraction (A375)	cleaved PARP positive nuclei fraction (C32)	cleaved PARP positive nuclei fraction (CBRC008)	cleaved PARP positive nuclei fraction (CBRC013)	cleaved PARP positive nuclei fraction (CBRC014)	cleaved PARP positive nuclei fraction (CBRC016)	cleaved PARP positive nuclei fraction (CBRC017)
C[As](C)SC[C@H](NC(=O)CC[C@H](N)C(=O)O)C(=O)NCC(=O)O [Darinaparsin] + O=C(O)c1ccc(-c2c[nH]c3ncc(-c4ccccc4)cc23)cc1C1CCCC1 [GSK650394] (first compound 0.4 µM, partner dose 0.16 µM)	186%	82.4%	140%	173%	51.3%	112%	128%	83.8%	67.8%	89.2%
Cn1cc(C2=C(c3cn(C4CCN(Cc5ccccn5)CC4)c4ccccc34)C(=O)NC2=O)c2ccccc21 [Enzastaurin] + Cc1cc(N2CCOCC2)cc2[nH]c(-c3c(NC[C@@H](O)c4cccc(Cl)c4)cc[nH]c3=O)nc12 [BMS536924] (first compound 0.8 µM, partner dose 0.2 µM)	90.3%	36.1%	63.9%	253%	82.3%	101%	104%	91.2%	69.8%	98.4%
C[As](C)SC[C@H](NC(=O)CC[C@H](N)C(=O)O)C(=O)NCC(=O)O [Darinaparsin] + CN(NC(=O)CC(=O)NN(C)C(=S)c1ccccc1)C(=S)c1ccccc1 [STA4783] (first compound 0.4 µM, partner dose 0.006 µM)	489%	58.5%	70.6%	6020%	221%	2840%	161%	474%	260%	247%
Cn1cc(C2=C(c3cn(C4CCN(Cc5ccccn5)CC4)c4ccccc34)C(=O)NC2=O)c2ccccc21 [Enzastaurin] + CN(C)S(=O)(=O)c1ccc2c(c1)/C(=C/c1cc3c([nH]1)CCCC3)C(=O)N2 [SU6656] (first compound 0.8 µM, partner dose 0.4 µM)	87.4%	92.6%	71.1%	55.1%	96.4%	287%	67.5%	223%	169%	127%
N.N.[Cl][Pt][Cl] [cisplatin] + O=C(CCCCCCC(=O)Nc1ccccc1)NO [vorinostat] (first compound 1.6 µM, partner dose 0.08 µM)	173%	55%	98.4%	89.1%	118%	86.6%	80.9%	91.1%	218%	91.9%
Cn1cc(C2=C(c3cn(C4CCN(Cc5ccccn5)CC4)c4ccccc34)C(=O)NC2=O)c2ccccc21 [Enzastaurin] + Cn1cncc1[C@@](N)(c1ccc(Cl)cc1)c1ccc2c(c1)c(-c1cccc(Cl)c1)cc(=O)n2C [tipifarnib] (first compound 0.8 µM, partner dose 0.01 µM)	258%	88.1%	129%	83.8%	81.8%	86.9%	56.6%	126%	87.4%	84.5%
Cn1cc(C2=C(c3cn(C4CCN(Cc5ccccn5)CC4)c4ccccc34)C(=O)NC2=O)c2ccccc21 [Enzastaurin] + O=C(CCCCCCC(=O)Nc1ccccc1)NO [vorinostat] (first compound 0.8 µM, partner dose 0.08 µM)	72.2%	345%	161%	124%	96.1%	187%	45.5%	93.4%	103%	99.3%
N.N.[Cl][Pt][Cl] [cisplatin] + COc1cc2c(Oc3ccc4[nH]c(C)cc4c3F)ncnc2cc1OCCCN1CCCC1 [cediranib] (first compound 1.6 µM, partner dose 0.4 µM)	88.4%	82.8%	117%	81.4%	172%	127%	55.4%	101%	119%	114%
Cn1cc(C2=C(c3cn(C4CCN(Cc5ccccn5)CC4)c4ccccc34)C(=O)NC2=O)c2ccccc21 [Enzastaurin] + C[C@@H]1CCN(C(=O)CC#N)C[C@@H]1N(C)c1ncnc2[nH]ccc12 [CP690550] (first compound 0.8 µM, partner dose 1 µM)	164%	76.8%	137%	51.7%	78%	110%	72.3%	68.5%	49.6%	71.1%
C[As](C)SC[C@H](NC(=O)CC[C@H](N)C(=O)O)C(=O)NCC(=O)O [Darinaparsin] + C[C@@H]1CCN(C(=O)CC#N)C[C@@H]1N(C)c1ncnc2[nH]ccc12 [CP690550] (first compound 0.4 µM, partner dose 1 µM)	93.4%	72.6%	33.9%	101%	112%	29.8%	133%	90.5%	60.7%	77.2%
C[C@]12O[C@H](C[C@]1(O)CO)n1c3ccccc3c3c4c(c5c6ccccc6n2c5c31)CNC4=O [Lestaurtinib] + Cc1ccc(NC(=O)c2cccc(N(C)C)c2)cc1NC(=O)c1ccc(O)cc1 [ZM336372] (first compound 0.004 µM, partner dose 2 µM)	45.3%	96.4%	29.8%	121%	98.9%	114%	92.9%	93.4%	135%	123%
Cn1cc(C2=C(c3cn(C4CCN(Cc5ccccn5)CC4)c4ccccc34)C(=O)NC2=O)c2ccccc21 [Enzastaurin] + Cc1ccc(NC(=O)c2cccc(N(C)C)c2)cc1NC(=O)c1ccc(O)cc1 [ZM336372] (first compound 0.8 µM, partner dose 2 µM)	98.2%	90.6%	126%	52.9%	41%	454%	71.1%	150%	153%	94.4%
N.N.[Cl][Pt][Cl] [cisplatin] + Cc1ccc(NC(=O)c2cccc(N(C)C)c2)cc1NC(=O)c1ccc(O)cc1 [ZM336372] (first compound 1.6 µM, partner dose 2 µM)	37.6%	94.2%	202%	162%	76.5%	145%	86%	145%	157%	116%
N.N.[Cl][Pt][Cl] [cisplatin] + CN(NC(=O)CC(=O)NN(C)C(=S)c1ccccc1)C(=S)c1ccccc1 [STA4783] (first compound 1.6 µM, partner dose 0.006 µM)	76.2%	270%	28.7%	54.8%	81.1%	236%	77.3%	101%	112%	98.8%
C[C@]12O[C@H](C[C@]1(O)CO)n1c3ccccc3c3c4c(c5c6ccccc6n2c5c31)CNC4=O [Lestaurtinib] + CN(C)S(=O)(=O)c1ccc2c(c1)/C(=C/c1cc3c([nH]1)CCCC3)C(=O)N2 [SU6656] (first compound 0.004 µM, partner dose 0.4 µM)	231%	106%	96.2%	41.9%	158%	140%	148%	82.9%	61.2%	89.1%
C[As](C)SC[C@H](NC(=O)CC[C@H](N)C(=O)O)C(=O)NCC(=O)O [Darinaparsin] + COc1cc(Nc2ncc(F)c(Nc3ccc4c(n3)NC(=O)C(C)(C)O4)n2)cc(OC)c1OC [Tamatinib] (first compound 0.4 µM, partner dose 0.4 µM)	308%	116%	114%	98%	138%	117%	117%	90.1%	77.1%	130%
C[As](C)SC[C@H](NC(=O)CC[C@H](N)C(=O)O)C(=O)NCC(=O)O [Darinaparsin] + CN(C)S(=O)(=O)c1ccc2c(c1)/C(=C/c1cc3c([nH]1)CCCC3)C(=O)N2 [SU6656] (first compound 0.4 µM, partner dose 0.4 µM)	96.7%	97.5%	62.6%	158%	27.6%	122%	157%	97.6%	22.2%	94.6%
C[As](C)SC[C@H](NC(=O)CC[C@H](N)C(=O)O)C(=O)NCC(=O)O [Darinaparsin] + OCCn1cc(-c2cnc3nnn(Cc4ccc5ncccc5c4)c3n2)cn1 [PF04217903] (first compound 0.4 µM, partner dose 1 µM)	98.2%	37.1%	25.3%	105%	169%	93.9%	100%	75.9%	24%	138%
C[As](C)SC[C@H](NC(=O)CC[C@H](N)C(=O)O)C(=O)NCC(=O)O [Darinaparsin] + CC1(C)NC(=O)N(c2ccc([N+](=O)[O-])c(C(F)(F)F)c2)C1=O [nilutamide] (first compound 0.4 µM, partner dose 1 µM)	82.3%	78.1%	41.7%	155%	88.2%	103%	103%	90.5%	88.4%	174%
C[As](C)SC[C@H](NC(=O)CC[C@H](N)C(=O)O)C(=O)NCC(=O)O [Darinaparsin] + CC(C)(C)c1cnc(CSc2cnc(NC(=O)C3CCNCC3)s2)o1 [SNS-032] (first compound 0.4 µM, partner dose 0.01 µM)	147%	83.9%	155%	108%	25.7%	215%	94.9%	83.4%	140%	78.2%
Cn1cc(C2=C(c3cn(C4CCN(Cc5ccccn5)CC4)c4ccccc34)C(=O)NC2=O)c2ccccc21 [Enzastaurin] + O=C(Nc1cccc(Cl)c1)Nc1ncc(CCNc2ncnc3ccsc23)s1 [SNS314] (first compound 0.8 µM, partner dose 0.0008 µM)	180%	23.8%	63.2%	36.7%	77.8%	99.9%	102%	83.8%	300%	75.9%

Looked up one by one from the entries so far:
Structure (SMILES)	cleaved PARP positive nuclei fraction (501Mel)	cleaved PARP positive nuclei fraction (A101D)	cleaved PARP positive nuclei fraction (A2058)	cleaved PARP positive nuclei fraction (A375)	cleaved PARP positive nuclei fraction (C32)	cleaved PARP positive nuclei fraction (CBRC008)	cleaved PARP positive nuclei fraction (CBRC013)	cleaved PARP positive nuclei fraction (CBRC014)	cleaved PARP positive nuclei fraction (CBRC016)	cleaved PARP positive nuclei fraction (CBRC017)
Cn1cc(C2=C(c3cn(C4CCN(Cc5ccccn5)CC4)c4ccccc34)C(=O)NC2=O)c2ccccc21 [Enzastaurin] + Cc1cc(N2CCOCC2)cc2[nH]c(-c3c(NC[C@@H](O)c4cccc(Cl)c4)cc[nH]c3=O)nc12 [BMS536924] (first compound 0.8 µM, partner dose 0.2 µM)	90.3%	36.1%	63.9%	253%	82.3%	101%	104%	91.2%	69.8%	98.4%
Cn1cc(C2=C(c3cn(C4CCN(Cc5ccccn5)CC4)c4ccccc34)C(=O)NC2=O)c2ccccc21 [Enzastaurin] + O=C(Nc1cccc(Cl)c1)Nc1ncc(CCNc2ncnc3ccsc23)s1 [SNS314] (first compound 0.8 µM, partner dose 0.0008 µM)	180%	23.8%	63.2%	36.7%	77.8%	99.9%	102%	83.8%	300%	75.9%
